Measured values reported in the supplement of paper PMC5949888.
± gives the standard deviation of the averaged measurements. Most values lie at the floor of the assay. Slopes are relative: functional sequences can read slightly below zero.

System: Saccharomyces cerevisiae PS128 hsf1 delta, HSF1(1-493) fusion
Assay: growth estimate (transactivation domain function in HSF1 fusion, heat-shock survival) (a.u. (slope of normalised read count over time)); higher = stronger growth at 37°C, i.e. more transactivation activity
Conditions: library: random library
Description: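 Random 60-nt DNA library encoding peptides of up to 20 aa, fused to the C-terminus of yeast HSF1 residues 1-493 (C-terminal TAD deleted) and expressed from the native HSF1 promoter on a CEN plasmid in hsf1-deleted S. cerevisiae PS128. Cells were selected at 37°C on -trp 5-FOA plates for 0, 2, 4, 6 and 8 days and amplicons were sequenced. Growth estimate is the slope of a robust linear fit of total-sum-normalised read counts (normalised to the first time point) over time, using at least 2 replicates. Sequences are classed functional (TAD activity) above a threshold of -0.13, set from stop-codon control sequences.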

Substance | growth estimate
FLLITLTSGFSVGMQVSHW | < -0.25
FLLLARAVSSAEPSGETQQR | < -0.25
FLLRR | < -0.25
FLLRV | < -0.25
FLLTK | < -0.25
FLMPEDLV | < -0.25
FLNVGRWRGYYRAQARTPDN | < -0.25
FLPGQEVRLAVLICISGGYR | < -0.25
FLQLPRPYDADPQEAPFTVN | < -0.25
FLQRI | < -0.25
FLRAFRSLYKNEWASHAICV | < -0.25
FLRAYAGL | < -0.25
FLRGAVVDAPQETGSMFVNS | < -0.25
FLRIESGICPRSYGTR | < -0.25
FLRR | < -0.25
FLRSDGRIRFLSRFGNGAGA | < -0.25
FLSIEDLGGEQRP | < -0.25
FLSLYEGGS | < -0.25
FLTPHCALLMSRC | -0.246
FLTPRHGTLAYGVTLGG | < -0.25
FLTTGFNRSVGP | < -0.25
FLV | -0.2494 ± 0.001
FLVEIPLWFQRAVCWHSELF | < -0.25
FLVLSKRLTEAIDTNAVV | < -0.25
FLVTD | < -0.25

5 entries from above, in markdown:

| Substance | growth estimate |
| --- | --- |
| FLQLPRPYDADPQEAPFTVN | < -0.25 |
| FLQRI | < -0.25 |
| FLRR | < -0.25 |
| FLTPHCALLMSRC | -0.246 |
| FLVLSKRLTEAIDTNAVV | < -0.25 |

Remaining list, next part.

Substance | growth estimate
FLVVINPSLSVMMKKPH | < -0.25
FLYKVHTHTTMHVPAHAHVG | < -0.25
FLYWSDRGLVGSRQLWQYNS | -0.241
FMCLESVLAKPKSVSPPPDH | -0.107
FMGIPNP | < -0.25
FMIPSRWEYARDGAWSSRRI | < -0.25
FMRVSFAKLASDLGRGDIEW | -0.246
FMSASPLQALRLGCRARLAV | < -0.25
FMWFRHS | < -0.25
FNCTYSQ | -0.246
FNCVHNKQNHGAKEGKSAPV | < -0.25
FNDAALLYITGQSNTCHLET | < -0.25
FNIVRGLPHTD | < -0.25
FNLHRADVYWSHLDSGHW | < -0.25
FNLQINSRAV | < -0.25
FNNEFIAF | -0.0684
FNPLLPRMGGIQSIITANSP | < -0.25
FNQIA | < -0.25
FNRPVLRSRTEG | < -0.25
FNSYTCIGVGHKPVF | < -0.25
FNTVTRIGVIRPVRNAPSSV | 0.402
FPARNTFYE | < -0.25
FPASEDRTCPDNMLIESGSA | < -0.25
FPATSYTAERK | < -0.25
FPCSIENLTEEGVNTSGISN | < -0.25

Substance | growth estimate
FPEAAHEYGLCCRLSFGGPS | < -0.25
FPFDEIRRQMFS | < -0.25
FPGIFRKTFNCWFPVIGHSC | < -0.25
FPGISSEASA | < -0.25
FPGLVTCNNRDAALLNARAG | < -0.25
FPGTWSRRVVP | < -0.25
FPPGRDTSGKVSKLRLRIEA | < -0.25
FPPQDVFNRGPGQTRA | < -0.25
FPRDRVVTLGL | < -0.25
FPRLF | < -0.25
FPRSCKRGMSRFSAVRRFAC | < -0.25
FPTLCRDYGRVHVSPASTTA | < -0.25
FPVARIMPITHPCSILAMRV | < -0.25
FPWWNAVFSSAQTLRRYGGQ | < -0.25
FQDTEYCLGRVGNRQRFRVL | < -0.25
FQGCTKRLIKRRSAVLPLYT | < -0.25
FQINSMR | < -0.25
FQLIADL | < -0.25
FQPK | < -0.25
FQPRTAPRRRDRFLGL | < -0.25
FQS | < -0.25
FQSRKIGGIQSRVNSQVSVK | -0.246
FQSVNWLVTLLELIMTGNSI | < -0.25
FQTFLNWAHSGLTSSL | < -0.25
FQTRMEYELTPTTRIR | < -0.25

Substance | growth estimate
FQVMKFIHFLSYVVSTQMYR | < -0.25
FQYQVCSPYTRALGPYAEPG | < -0.25
FRA | < -0.25
FRASAPSLLATQAELVATWT | < -0.25
FRATMGNTTRRIGSLVRIAS | < -0.25
FRAYPADCLRLQG | < -0.25
FRC | < -0.25
FRCGCLTFDHRAREVPRESS | < -0.25
FRCVLGSLLG | < -0.25
FRDPETISFH | < -0.25
FRETH | < -0.25
FRG | < -0.25
FRGETIARSFMRRLESLRYA | < -0.25
FRGGVRNSTFRDGGKLLPCT | < -0.25
FRGLSGIRPLTE | < -0.25
FRGNEH | < -0.25
FRGNPTAQCQPDQLFQGSAP | < -0.25
FRGQLLGDRF | < -0.25
FRGWPREK | < -0.25
FRI | < -0.25
FRIA | < -0.25
FRIVRPLKLWTCYMGDHVRE | < -0.25
FRKGY | < -0.25
